Results as given in US6294650A, “Inhibition of mammalian telomerase by peptide nucleic acids” (The Board of Regents, University of Texas System, priority 1999, dated 2001).
The name of at least one read-out is uncertain.

Legend:
human telomerase [1] = test: TRAP assay of telomerase activity in HME50-5 cell extracts preincubated with PNA or PS oligomer; type: biochemical
Method: Cells were derived from a human immortal primary breast epithelial cell line (HME50-5) that expresses telomerase at high levels. Cell extracts were obtained by resuspending a 100,000 cell pellet into 200 μl of lysis buffer (0.5% 3-[3-cholamidopropyl-dimethylammonio]-1-propane-sulfonate (CHAPS), 10 mM Tris-HCl, pH 7.5, 1 mM ethylenebis(oxyethylene-nitrilo)tetraacetic acid (EGTA), 5 mM β-mercaptoethanol, 0.1 mM 4-(2-aminoethyl)benzenesulfonyl fluoride (AEBSF), 10% glycerol). The suspension was mixed by pipetting at least three times and kept on ice for 30 minutes. The lysate was centrifuged at 16,000×g for 20 minutes at 4° C., and 160 μl of the supernatant was collected. The cells were then diluted 10-fold to obtain a 50 cell equivalent/μl stock suspension, aliquoted, frozen in liquid nitrogen, and stored at -80° C. These aliquots were utilized throughout our experiments to ensure consistency.
The tubes were transferred to a PCR thermocycler set at 94° C. for 3 minutes to melt the wax barrier, cycled 30 times (30 seconds at 95° C., 30 seconds at 55° C. and 30 seconds at 72° C.) followed by a 3 minute extension at 72° C. The samples were frozen at -80° C. and the wax barrier removed. […] Gels were fixed for 30 minutes (1:1 ethanol: water, 0.5 M NaCl, 40 mM NaOAc, pH 4.2) then exposed to a phosphorimager screen for quantitation. […] Data was processed using ImageQuant software version 3.3.
Varied concentrations of PNA were added to cell extracts containing the TS primer. Telomerase products were visualized by gel electrophoresis and the extent of inhibition was quantified by phosphorimager analysis by evaluating each lane of the gels separately. The lanes were further separated into two areas for evaluation; one for the internal amplification standard (ITAS) and the other for all telomerase products. […] This ratio was taken to indicate telomerase activity with the ratio of the positive control being assigned 100% activity. The extent of inhibition as a function of the concentration of the added PNA was plotted and these graphs were utilized to derive the IC50.
Telomerase activity was measured using the telomeric repeat amplification protocol (TRAP). Rather than measure the change in chromosome length over time, a process that requires weeks to produce definitive results and measures telomerase activity only indirectly, the TRAP assay measures the elongation of a short oligonucleotide primer (TS primer) known to act as an efficient substrate of telomerase. Cell extracts from a human immortal breast epithelial cell line, HME50-5, expressing telomerase were preincubated with PNAs to allow recognition of complementary sequences by Watson-Crick base-pairing. The TS primer was then added to initiate chain elongation by telomerase. Following elongation of the TS primer, the mixture was transferred to a thermocycler and polymerase chain reaction (PCR) was performed to amplify the products. Two potential template DNAs were present, and amplification products were primed from either an internal amplification standard (ITAS) or from the product of telomerase elongation of the TS primer. These amplification products were separated by gel electrophoresis and quantitated separately. A ratio of the amount of amplified products of telomerase activity to that derived from amplification of the ITAS standard was determined and compared to a positive control to which no PNA was added. This comparison allowed calculation of the inhibition of telomerase activity due to a given concentration of PNA.

human telomerase [2] = test: TRAP assay of telomerase activity in permeabilized HME50-5 cells; type: cell-based; details: 37° C., read-out: IC50 (nM) Perm. Cells 37° C.
Method: To examine the ability of PNAs to inhibit telomerase activity within permeabilized cells HME50-5 cells were treated with a buffered solution containing a relatively low concentration of detergent (20 mM Tris-HCl, pH 8.3, 1.5 mM MgCl2, 68 mM KCl, 0.5% Tween 20, 1 mM EGTA, 5.0% glycerol, and 0.1 mM AEBSF). The telomerase activity in these cells was not further purified, and permeabilized cells were incubated with PNA and PS oligomers prior to assay for telomerase activity.
A further control experiment was performed to ensure that the observed. inhibition was due to PNA entry into permeabilized cells The TRAP assay was utilized to compare the level of telomerase activity retained inside permeabilized cells to activity which leaks into solution. This control was necessary to ensure that the observed inhibition was due to PNA inhibition of telomerase within cells. Permeabilized cells were centrifuged and the cell pellet and the cell-free supernatant were separately examined for telomere activity using the TRAP assay. […]
Telomerase activity was determined using the telomere repeat amplification protocol (TRAP) assay essentially as described (Piatyszek et al. (1995) Methods in Cell Science 17: 1) with the modification that the cellular extract was preincubated at 25° C. for 30 minutes with the PNA at the concentrations indicated. […] Gels were fixed for 30 minutes (1:1 ethanol: water, 0.5 M NaCl, 40 mM NaOAc, pH 4.2) then exposed to a phosphorimager screen for quantitation. […]
Varied concentrations of PNA were added to cell extracts containing the TS primer. Telomerase products were visualized by gel electrophoresis and the extent of inhibition was quantified by phosphorimager analysis by evaluating each lane of the gels separately. […] A ratio of telomerase products to ITAS was determined and compared to a positive control in which no PNA had been added. […]
The potential for such interactions to interfere with the location of hTR by PNAs was evaluated by examining elongation under conditions more similar to those in vivo. […]

[3] = HME50-5 cell extract, 37° C., read-out: IC50 (nM) Cell Extract 37° C.
[4] = HME50-5 cell extract, 25° C., 30 min preincubation, read-out: IC50 (nM) Cell Extract 25° C.

Work on “PNA (XII): complementary PNA, sequence TAGGGTTAGACAA (all peptide nucleic acid (PNA))” yielded an IC50 (human telomerase [1]; [3]) of 5 nM and an IC50 (human telomerase [2]) of 50 nM.

Work on “PNA (IV): complementary PNA, sequence GTTAGGGTTAG (all peptide nucleic acid (PNA))” yielded an IC50 (human telomerase [1]; [4]) of 10 nM, an IC50 (human telomerase [1]; [3]) of 100 nM and an IC50 (human telomerase [1]; cell extract, 30 min preincubation, read-out: IC50 for inhibition of telomerase) of 10 nM.

“PNA (VII): complementary PNA, sequence CTCAGTTAGGGTTAG (all peptide nucleic acid (PNA))” gave an IC50 (human telomerase [1]; [4]) of 10 nM and an IC50 (human telomerase [2]) of 100 nM.

With “PNA (XIII): complementary PNA, sequence GTTAGGGTTAGACAA (all peptide nucleic acid (PNA))” the IC50 (human telomerase [1]; HME50-5 cell extract, 25° C., 30 min preincubation, listed as PNA XIII, read-out: IC50 (nM) Cell Extract 25° C.) was about 10 nM, the IC50 (human telomerase [1]; [4]) was 10 nM and the IC50 (human telomerase [2]) was 100 nM.
